Data as given in PubChem BioAssay AID1508600 (Functional Genomics Laboratory (NCATS/FGL), 2020).
The campaign covered roughly 53,000 sequences. About 3,700 (7%) were called active.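 The calls were made as follows: active = gene knockdowns whose robust z-score for IL-1 alpha signal is at least 2 or at most -2, so actives lie on both sides; inactive = the rest.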 The list shows a part of the results.

Test: Components of the Cytosolic LPS Sensing Pathway: Gene Identification via Genome-wide siRNA Screen;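 also: robust z of the log signal after scaling to non-targeting control siRNA wells of the plate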
Settings: RAW264.7 macrophages, IL-1a HTRF, actives lie on both sides, screened at 100 nM (by protocol), cells primed 5 h with Pam3CSK4 first
How it was run: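 Read-out: IL-1a HTRF on supernatant, divided by plate negative-control median ×100, log-transformed and converted to robust z-score. Cells were RAW264.7 given 100 nM siRNA, Pam3CSK4-primed 5 hours, then LipidA-transfected 24 hour.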

| Sequence | z-score |
| --- | --- |
| CGUGAACUAUGAUUGGAUATT against Gbe1 | inactive: 0.382 |
| GCCAAGUACUCGUUUCCACTT against Wtap | inactive: 0.826 |
| CCGGUCAAAAUUGAAAAGGTT against Bves | inactive: 0.666 |
| GCGUGUCCCUUCAGUUUGUTT against Zscan12 | inactive: 1.83 |
| GGAAACCUAUGAGAAUAUCTT against Ipo5 | inactive: -0.281 |
| GGGAACCUUUUCUAAGUUCTT against 9230112E08Rik | inactive: 0.518 |
| CGCAUAUCAGCAGUGUAGATT against Slc26a11 | inactive: -0.63 |
| GGAAAUUACCCAAUAUGUATT against Naip2 | inactive: 0.25 |
| GGAGAAGCAGAAGAUGUAUTT against Stk11 | inactive: -0.113 |
| GCCAGAAACUAAUGAGAUCTT against Tmem38a | inactive: 1.59 |
| CCAUGGACCCUUUUUUUGGTT against Plekhh3 | inactive: 0.301 |
| CCCUAAGCUCUGUUCCCAGTT against Olfr371 | inactive: -0.561 |
| GGAGCUGGUCAAGAACUACTT against Chrna7 | inactive: 1.38 |
| GGCCUUAGGAAUCAAGUUGTT against 9530053A07Rik | inactive: 1.24 |
| GCAUGAAGUUAGUAAUGCUTT against C230029F24Rik | inactive: 0.107 |
| GCAUGAAUCGUGCGAAGAUTT against Zfp871 | inactive: 0.903 |
| GGGAGACAUUCAUUAUCAGTT against Slc32a1 | inactive: 0.0976 |
| GGUGUUUCCCAUUAGAACCTT against Borcs5 | inactive: -1.03 |
| GGACCUUACUAACUUGACCTT against Lrrc9 | inactive: 1.73 |
| GAUUGGAGUGGUCUCUGCUTT against Mlec | inactive: 0.0197 |
| CCAUUGUUUUCCAGUUCCATT against Dgkeos | inactive: 0.494 |
| GCAGUACCGAGCAGCAGAATT against Acad10 | active: -2.41 |

Individual results from the entries so far.
Entry of GGGAACCUUUUCUAAGUUCTT against 9230112E08Rik under z-score: inactive: 0.518
Entry of CGUGAACUAUGAUUGGAUATT against Gbe1 under z-score: inactive: 0.382
Entry of CCAUGGACCCUUUUUUUGGTT against Plekhh3 under z-score: inactive: 0.301
Entry of GGAGCUGGUCAAGAACUACTT against Chrna7 under z-score: inactive: 1.38
Entry of GCAUGAAGUUAGUAAUGCUTT against C230029F24Rik under z-score: inactive: 0.107
Entry of GAUUGGAGUGGUCUCUGCUTT against Mlec under z-score: inactive: 0.0197

Continuation:

| Sequence | z-score |
| --- | --- |
| GGAAGACUUUCUGGACAUATT against Sgk2 | active: 2.44 |
| GAAACCAGUAGACAAAUACTT against Arv1 | inactive: -0.215 |
| GGACUUUAAGCCAUUACGATT against Cltb | inactive: -0.569 |
| GGAAAUCAAGCUGAAGUUATT against Eqtn | inactive: 0.231 |
| GGCGACUGUGCAAUUUCAUTT against Ceacam1 | inactive: 1.54 |
| GGACUCAGAUAUCUUUCAGTT against Adck1 | inactive: -0.328 |
| CGAGCAACCACUGAUCAAGTT against Grap | inactive: 0.774 |
| GGCACACUUGAGAAGACACTT against Cul5 | inactive: -0.601 |
| GCUUCGGCAUCGAUCAGAUTT against Tlx2 | inactive: -0.822 |
| GCACCUGGAGUACAUAAAATT against Sh2d1a | inactive: -0.854 |
| GCCCGAUGACACGAGGAUUTT against Zfp39 | inactive: -1.81 |
| GGAUUUUAUGAACAUUUGCTT against Agk | inactive: -0.396 |
| GGCCCUUUGACCUCAAGAATT against Myh7 | inactive: -0.38 |
| GCUGGGCUUUCCAAGUUACTT against Tomm20 | inactive: 0.669 |
| GGACAAACUAUGAAAACAGTT against Ube2v2 | inactive: -0.473 |
| GCUAUGUGUACAGCUGCUGTT against Vmn1r62 | inactive: 0.21 |
| GGAAGAAAGAUUCUCACUGTT against Entpd3 | inactive: -0.554 |
| CCAGCAAACUGUUGAUCCCTT against Oit3 | inactive: 0.341 |
| GGAUUUCAAGGGAAUUUGATT against Wbp4 | inactive: -0.271 |
| CGUGGGCCUAUGCUUGUCATT against Tsc1 | inactive: 0.32 |
| GGGCUACAGCAUGUAUGAGTT against Zc3h4 | inactive: 0.814 |
| CGAUCCCUGUCUGUUGGAUTT against Spint4 | inactive: 0.944 |

| Sequence | z-score |
| --- | --- |
| GGCCUAGACAUACAUGAAATT against Bnip3l | active: 2.93 |
| GCUCUUCAAUAAUAUGUCATT against Cdh26 | inactive: 1.16 |
| GGUUUCUUCAUUUGUUUGCTT against Syt2 | inactive: -1.1 |
| GGAUUCAGAGAAAGAAAACTT against Azi2 | inactive: 0.443 |
| GCAAGCUUUUUUGAAGCAGTT against Ppil4 | inactive: 0.544 |
| GGGAACGCAACAUUUCUCCTT against Oxld1 | active: 2.34 |
| GCUGUUCAUUGAGUAUCCCTT against Irf2bpl | inactive: -1.62 |
| GGCACGUGAUAAAGGGUUCTT against Pcdha7 | active: 2.56 |
| GGUUAAGGAAAUAUUGUGATT against Gpalpp1 | inactive: 0.405 |
| GGAUAUCAGUGAUGACCAUTT against Uckl1 | inactive: 0.256 |
| GCCUUCACAGAAGAAGCAUTT against Doc2a | inactive: -1.05 |
| CGUGGUAGUGAAAAUUGAGTT against Xbp1 | inactive: 0.282 |
| CCCUAUCAUCAGUUUCCGGTT against Cfap65 | inactive: -0.179 |
| GGAUUCAUCAGACAUUAAGTT against 4930503L19Rik | inactive: -0.0357 |
| GGACUGACUGGCUUCAUUGTT against Atl2 | active: -2.52 |
| GGCUCUGCGCAUCACCAAUTT against Nfasc | inactive: -1.07 |
| GGAAACUGAGACAGGCCUUTT against Pgls | inactive: -0.258 |
| GGGAGAGAUUCUUCUUCAGTT against Cep68 | inactive: 0.905 |
| GGAAAUCCUCAGACAAAUGTT against Pdc | inactive: 0.93 |
| CCUGAUCAUGUUGAAGGAATT against Ktn1 | inactive: 0.256 |
| GGAUAUUUGUCAUUUCCUUTT against Tmcc2 | inactive: -0.819 |
| GGAGGACUACAGAAAGCCUTT against Olfr1167 | inactive: -1.92 |

| Sequence | z-score |
| --- | --- |
| GGGACUUUAAGAAAAACUATT against Sparcl1 | inactive: -0.181 |
| GGAGGAUGAUGAGGAGGAUTT against Ppp1r1b | active: 2.35 |
| GGAGAAGGUUGCUGUAAAATT against 1700012A03Rik | inactive: 1.8 |
| GGCGAUCAGAGUUCAGGUATT against Hps1 | inactive: -0.596 |
| GCUAAUCCCAACAUGCCUGTT against Pum1 | inactive: -0.498 |
| GGGAAUGAGCUUUUGCCUATT against Akr1c18 | inactive: -0.989 |
| GCUUGAAUUGUGUAGUAAUTT against B3gntl1 | inactive: 1.51 |
| GCUAGUACUAUUACCUGCUTT against Enkd1 | active: 2.17 |
| GGGAAGAUGUGAGAAACUGTT against Xpnpep2 | inactive: 0.112 |
| CGGUCACACAAAAAACAGATT against Nkapd1 | inactive: 0.272 |
| GGGAGGAAGUGUUCUUCUCTT against Psg18 | inactive: -0.212 |
| GGAACUGGAAAGAGUUCUUTT against Foxo1 | inactive: 0.165 |
| GGCCACUGACCAUGAAGAATT against Gata2 | inactive: -0.289 |
| GGCCUACUUCCUACUCAAATT against Tbx10 | inactive: -1.85 |
| CGAGCACAGUGACUACUACTT against Micall2 | inactive: -1.18 |
| GGCUCAUCCAAAAUAGAGGTT against Napa | inactive: -0.381 |
| GGCUUCUUCGCUCAGAAAUTT against Dnase2a | inactive: 0.541 |
| GCGGAUCUCUGAUUUAUAUTT against Traf5 | inactive: -1.34 |
| GGAAGAACUUCAGAAUGCATT against Slirp | inactive: -0.627 |
| CCCUUUGCUUAACCUUGCATT against Olfr1258 | inactive: -0.378 |
| GGCGAUAGACGAGUAUCAGTT against Aida | inactive: 0.41 |
| GGUGGAUUUAGUUUCUGCATT against C1d | inactive: 0.264 |

| Sequence | z-score |
| --- | --- |
| GGUGGAAAGUGCAUAGACATT against Notch3 | inactive: 0.789 |
| GGACAAAUUCCUUCUUUUCTT against Olfr651 | inactive: -0.36 |
| GGAAAUUCACACAGAUGAATT against Mtmr12 | inactive: -1.27 |
| GGAGUUUGUGAAUAAAUGUTT against Map2k2 | inactive: 0.177 |
| GGCAUUGACGAGGAUGACCTT against Supt3 | active: 2.74 |
| GGACGUAGAUUGGUACCUCTT against Emsy | inactive: -1.18 |
| GGACCUGGAGAAAGUCAAGTT against Pacsin1 | inactive: 1.22 |
| CGUAGACAUGGCCUUUUUUTT against Dipk1c | inactive: -0.863 |
| GGAUCUGAUGCGUCAGAGATT against Gigyf2 | inactive: 0.579 |
| GCCGACAGCUCCUUUAACUTT against Scamp4 | inactive: -0.799 |
| GGAACCACAUCUCAGCAGGTT against Wnk1 | inactive: -0.961 |
| GCAAUAAGCACCUUCCAUUTT against Gltp | inactive: -0.961 |
| GGAUGUACAAUAAUUGGGATT against Pramel39 | inactive: 1.45 |
| CCCUAUGUCCGUUCCAAGGTT against Rpl18 | inactive: 1.32 |
| CCGACCUGAAGACCUUACATT against Tmem18 | inactive: -0.501 |
| GCUACACAACUCUCCAUUATT against Crtam | inactive: -1.97 |
| GCAUUUUAGCCUUCGGACATT against C9 | inactive: -0.483 |
| GUCACCCGCUCAAAUCAGATT against H2bc21 | inactive: 1.45 |
| GGAGAGGAAGAUGAUAAAATT against Cdx4 | inactive: 1.25 |
